Test results taken from patent US20200292534A1.
No constants are given. Whether binding was seen depends on the method and setting. Some results given as binding are weak or reduced against the parent protein; the word gives no strength.

B1: PBI-5434 (peptide)
peptide: GVTGWRLCERILA
modifications: fluorophore conjugated (named Fluorophore-NLPep1); dye and linker not described
B2: PBI-5436 (peptide)
peptide: GVTGWRLCERILA
modifications: fluorophore conjugated (named Fluorophore-NLPep1); dye and linker not described

Target: NLpoly11S
Experiment: spectral scan of luminescence, purified NLpoly11S + peptide

binding | Binder
binds | B1
binds | B2
